Laboratory results reported in PubChem BioAssay AID1471 (National Center for Advancing Translational Sciences (NCATS), 2008).
In all, about 230,000 compounds went through this assay and about 310 (0.13%) were called active. Inconclusive means that the source gave no clear call. Such entries were picked first, then a sample of the others. Calls follow the shape of the dose curve; as a rule, active = well fitted activation curve with a large enough effect; inconclusive = small, poorly fitted or top-dose-only effect; inactive = no such curve, though single readings can be large or run the other way. Where the call is inconclusive, the potency comes from a doubtful curve fit.

experiment: qHTS Multiplex Assay to Identify Dual Action Probes in a Cell Model of Huntington: Cytoprotection (ATP); conditions: PC12 HTT-Q103 induced, ATP luminescence, 40 h; cytoprotection (ATP increase): at 56.4 µM (top of the series) unless noted; also: nearly all actives have a fitted effect of over 45% in size;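 as to cytoprotection (ATP increase): toxic huntingtin expression switched on by the ecdysone agonist tebufenozide; % of control where 0% means no effect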
Method in brief: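 ATP quantification (ATPlite) reports survival of PC12 cells in which tebufenozide, 100 nM final, switches on Htt exon 1 with 103 glutamines linked to GFP; compounds are titrated.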
Potency is read from the fitted curve at half-maximal effect.

SMILES | Potency | cytoprotection (ATP increase)
COC(=O)[C@@]1(Cc2ccc(OC)cc2)[C@H]2c3cc(C(=O)N(C)C)n(Cc4ccccn4)c3C[C@H]2CN1C(=O)c1ccccc1 | inconclusive: 35500 nM [activator, single point] | 
COc1ccccc1NC(=O)CS(=O)(=O)c1cn(CC(=O)N2CCOCC2)c2ccccc12 | inconclusive: 631 nM [activator, single point] | 
COc1ccc(CCNC(=O)C2CCCN2C(=O)NC2CCCCC2)cc1OC (stereo not drawn) |  | inactive: -17.1% [at 10 µM]
CCc1ccc(NC(=O)C(=O)NCCN2CCN(C(=O)c3ccco3)CC2)cc1 |  | inactive: 28% [at 1.9 µM]
NN1C(=O)NC(c2ccccc2)(c2ccccc2)C1=O | inconclusive: 3550 nM [activator, single point] | 
O=C(CN1CCN(C2CCCCC2)CC1)Nc1ccccc1-c1ccccc1 |  | inactive: -12.5% [at 10 µM]
CCN(CC)S(=O)(=O)c1cccc(NC(=O)/C=C/c2ccc([N+](=O)[O-])cc2)c1 |  | inactive: -7.53% [at 10 µM]
CNC(=O)c1nc(C)n(-c2ccc(Cl)cc2Cl)n1 | inconclusive: 1000 nM [activator, single point] | 
N/C(=N\S(=O)(=O)c1ccc(Cl)s1)c1ccccc1 | inconclusive: 100 nM [activator, full curve, poor fit] | 
O=C(Cn1cnc2ccccc21)N/N=C/c1cccs1 | inconclusive: 1120 nM [activator, single point] | 
COc1ccc(CN(CC2CCC(C(=O)O)CC2)C(=S)Nc2cc(C)ccc2C)cc1 (stereo not drawn) | inconclusive: 100 nM [activator, partial curve, poor fit] | 
CCc1ccc(OCc2n[nH]c(=S)n2Cc2ccccc2)cc1 | inconclusive: 3160 nM [activator, single point] | 
CC(=O)N(C(C)=O)S(=O)(=O)c1ccc(N=NN2CCCCC2)cc1 | inconclusive: 5620 nM [activator, single point] | 
Cn1c(CCc2nc3ccccc3[nH]2)nnc1SCC#N | inconclusive: 5010 nM [activator, single point] | 
Cc1nc(NC(=O)/C=C/c2ccco2)sc1C |  | inactive: -29.2% [at 10 µM]
CC1CCCC/C1=N\NC(=S)NCCc1ccccc1 (stereo not drawn) | inconclusive: 1580 nM [activator, full curve, poor fit] | 
CN1CC(=O)N(CC(=O)N2CCC(Cc3ccccc3)CC2)C1=O | inconclusive: 7.1 nM [activator, full curve, poor fit] | 
Cn1c(=O)[nH]c(=O)c2[nH]c(CN3CCN(Cc4ccccc4)CC3)nc21 | inconclusive: 3550 nM [activator, single point] | 

Shown field by field: part of the list above.
N/C(=N\S(=O)(=O)c1ccc(Cl)s1)c1ccccc1
  Potency: inconclusive: 100 nM [activator, full curve, poor fit]
COc1ccc(CN(CC2CCC(C(=O)O)CC2)C(=S)Nc2cc(C)ccc2C)cc1 (stereo not drawn)
  Potency: inconclusive: 100 nM [activator, partial curve, poor fit]
